The text below walks through data of publication PMC10923887.

The chains behind the UniProt entries cited, without tags or fusion partners. Where a name states a change or a piece, a line headed by the entry shows the natural chain unless it says otherwise.
UniProt Q9ES97: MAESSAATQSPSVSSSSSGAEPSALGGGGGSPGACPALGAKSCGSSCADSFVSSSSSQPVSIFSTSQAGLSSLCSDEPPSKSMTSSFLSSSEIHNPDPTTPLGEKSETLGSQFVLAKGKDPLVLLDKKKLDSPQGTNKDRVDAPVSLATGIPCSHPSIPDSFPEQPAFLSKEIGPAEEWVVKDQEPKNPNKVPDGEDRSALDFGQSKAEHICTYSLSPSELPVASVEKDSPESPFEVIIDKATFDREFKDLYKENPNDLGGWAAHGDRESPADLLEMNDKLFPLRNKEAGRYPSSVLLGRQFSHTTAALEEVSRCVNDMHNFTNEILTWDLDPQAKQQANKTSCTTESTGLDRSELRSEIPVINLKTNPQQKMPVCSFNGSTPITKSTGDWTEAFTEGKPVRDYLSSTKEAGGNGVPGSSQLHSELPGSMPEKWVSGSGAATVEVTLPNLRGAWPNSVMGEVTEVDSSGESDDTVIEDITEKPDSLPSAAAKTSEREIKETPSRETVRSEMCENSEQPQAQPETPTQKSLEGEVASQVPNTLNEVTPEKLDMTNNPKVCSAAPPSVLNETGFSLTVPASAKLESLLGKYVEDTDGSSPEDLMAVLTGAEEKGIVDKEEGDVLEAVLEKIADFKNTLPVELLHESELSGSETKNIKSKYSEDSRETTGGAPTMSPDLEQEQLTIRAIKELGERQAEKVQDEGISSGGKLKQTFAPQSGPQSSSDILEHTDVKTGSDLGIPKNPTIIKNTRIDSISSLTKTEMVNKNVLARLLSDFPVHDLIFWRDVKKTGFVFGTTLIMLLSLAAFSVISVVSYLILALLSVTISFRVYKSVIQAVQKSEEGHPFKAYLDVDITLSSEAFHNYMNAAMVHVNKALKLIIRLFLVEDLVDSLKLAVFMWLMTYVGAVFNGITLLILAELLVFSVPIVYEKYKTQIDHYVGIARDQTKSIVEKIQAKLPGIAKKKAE
UniProt Q6RJR6: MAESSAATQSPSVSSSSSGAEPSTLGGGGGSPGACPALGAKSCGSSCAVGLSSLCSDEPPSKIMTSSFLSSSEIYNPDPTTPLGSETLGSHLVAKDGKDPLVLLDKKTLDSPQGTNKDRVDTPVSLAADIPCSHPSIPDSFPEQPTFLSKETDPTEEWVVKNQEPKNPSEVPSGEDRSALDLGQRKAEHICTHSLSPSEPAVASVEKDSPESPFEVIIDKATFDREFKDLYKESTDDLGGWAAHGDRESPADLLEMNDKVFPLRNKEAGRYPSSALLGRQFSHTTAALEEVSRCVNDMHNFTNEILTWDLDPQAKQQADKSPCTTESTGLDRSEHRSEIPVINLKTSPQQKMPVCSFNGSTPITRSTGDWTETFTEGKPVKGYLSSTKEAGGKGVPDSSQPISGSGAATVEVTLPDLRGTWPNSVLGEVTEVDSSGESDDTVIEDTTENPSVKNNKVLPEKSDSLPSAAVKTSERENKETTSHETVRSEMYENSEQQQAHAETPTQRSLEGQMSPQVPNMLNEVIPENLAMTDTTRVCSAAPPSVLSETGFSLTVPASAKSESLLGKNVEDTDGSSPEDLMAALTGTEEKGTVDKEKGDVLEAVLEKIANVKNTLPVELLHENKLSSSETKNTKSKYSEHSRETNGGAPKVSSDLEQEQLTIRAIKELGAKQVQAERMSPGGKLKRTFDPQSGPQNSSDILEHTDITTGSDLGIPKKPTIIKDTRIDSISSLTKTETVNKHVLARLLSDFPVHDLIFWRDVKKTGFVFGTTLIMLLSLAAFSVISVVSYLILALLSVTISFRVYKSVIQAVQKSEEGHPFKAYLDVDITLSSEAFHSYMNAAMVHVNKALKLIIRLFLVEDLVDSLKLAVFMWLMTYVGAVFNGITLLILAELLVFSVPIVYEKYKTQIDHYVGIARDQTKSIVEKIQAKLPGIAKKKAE

No constants are given. Whether binding was seen depends on the method and setting. Binding seen in cells or lysates may run through a third protein. For some of these results: A result given as binding can be weak or reduced; the word gives no strength. For some of these results: Sequences can lack the tags named with a protein.

In assay [1] the target is T1, Fatty Acid Binding Protein 5 (mouse heart) (mouse (endogenous in cardiac tissue)) (UniProt Q05816).
T1 sequence: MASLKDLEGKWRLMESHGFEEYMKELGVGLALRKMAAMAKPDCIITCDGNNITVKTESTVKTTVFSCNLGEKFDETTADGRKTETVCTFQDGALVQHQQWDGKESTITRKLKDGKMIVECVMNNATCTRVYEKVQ
As to the kind of experiment: co-IP; endogenous proteins in cardiac tissues of mice; Pierce Classic Magnetic IP/Co-IP Kit.

The target of assay [2] is T2, Fatty Acid Binding Protein 5 (rat (endogenous in NRVCs)) (UniProt P55053).
T2 sequence: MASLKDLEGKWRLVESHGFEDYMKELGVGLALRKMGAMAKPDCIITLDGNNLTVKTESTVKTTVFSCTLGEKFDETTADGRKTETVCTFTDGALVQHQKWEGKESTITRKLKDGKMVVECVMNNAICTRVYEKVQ
As to the kind of experiment: co-IP; endogenous proteins in NRVCs, IP with anti-RTN3 or anti-FABP5, normal rabbit IgG as control; Pierce Classic Magnetic IP/Co-IP Kit; with or without palmitate treatment.

Assay [3] has as its target Reticulon 3 (mouse heart) (mouse (endogenous in cardiac tissue)) (UniProt Q9ES97). As to the kind of experiment: co-IP; endogenous proteins in cardiac tissues of mice; Pierce Classic Magnetic IP/Co-IP Kit.
Assay [4] deals with Reticulon 3 (rat (endogenous in NRVCs)) (UniProt Q6RJR6). As to the kind of experiment: co-IP; endogenous proteins in NRVCs, IP with anti-RTN3 or anti-FABP5, normal rabbit IgG as control; Pierce Classic Magnetic IP/Co-IP Kit; with or without palmitate treatment.
The target of assay [5] is RTN3 R1-3xflag (1st-194th amino acids, lacking C-termini). As to the kind of experiment: co-IP; 293T cells with myc-tagged FABP5 and flag-tagged RTN3 full length or truncated forms; IP with anti-Flag.
For assay [6], the target named is RTN3 R2-3xflag (65th-236th amino acids, lacking N-termini). The description is as above.
For assay [7], the target named is RTN3-3xflag (full length). Described as above.

For “Reticulon 3 (mouse heart) (from UniProt Q9ES97-3)”, in assay [1], the binding entry is listed as “binds”.
On to Reticulon 3 (from UniProt Q6RJR6-2), for which the binding entry in assay [2] was “binds”.

B1: Fatty Acid Binding Protein 5 (mouse heart) (protein, UniProt Q05816 1-135)
chain: MASLKDLEGKWRLMESHGFEEYMKELGVGLALRKMAAMAKPDCIITCDGNNITVKTESTVKTTVFSCNLGEKFDETTADGRKTETVCTFQDGALVQHQQWDGKESTITRKLKDGKMIVECVMNNATCTRVYEKVQ
On to B1, for which the binding result in assay [3] is on record as “binds”.

B2: Fatty Acid Binding Protein 5 (protein, UniProt P55053 1-135)
chain: MASLKDLEGKWRLVESHGFEDYMKELGVGLALRKMGAMAKPDCIITLDGNNLTVKTESTVKTTVFSCTLGEKFDETTADGRKTETVCTFTDGALVQHQKWEGKESTITRKLKDGKMVVECVMNNAICTRVYEKVQ
With B2, in assay [4], the binding entry is recorded as “binds”.

B3: FABP5-myc (protein, UniProt P55053 1-135)
chain: MASLKDLEGKWRLVESHGFEDYMKELGVGLALRKMGAMAKPDCIITLDGNNLTVKTESTVKTTVFSCTLGEKFDETTADGRKTETVCTFTDGALVQHQKWEGKESTITRKLKDGKMVVECVMNNAICTRVYEKVQ
For the molecule B3, the values for the binding result in assay [5], in assay [6] and in assay [7] were “binds”, “no binding” and “binds”, respectively.
